Source: patent US20220347247A1, “USE OF CANNABINOIDS IN THE TREATMENT OF INFLAMMATION AND AGING IN THE SKIN” (priority 2021, published 2022)

Test system: IL-8
Assay: cells
Format: cell-based
Settings: Homo sapiens, NHEK, 24 h
Procedure: Example 1: Effects of six compounds on normal human epidermal keratinocytes The effects on normal human epidermal keratinocytes (NHEK) were measured by assessing IL-8 and PGE2 release by PMA-stimulated NHEK using specific ELISA kits.
Keratinocytes were seeded in 96-well plates and cultured for 24 hours in culture medium. The medium was then replaced by assay medium 1 containing or not (control) the test compounds or the reference compound (staurosporine tested at 1 nM for IL-8 release or indomethacin tested at 1 μM for PGE2 release) and the cells were pre-incubated for 24 hours. After pre-incubation, the medium was removed and replaced by assay medium 1 containing or not (stimulated control) the compounds or the reference compound and containing the inducer (PMA tested at 0.5 μg/ml). The cells were then incubated for 24 hours. In parallel, a non-stimulated control condition was performed.
All experimental conditions were performed in n=3. At the end of incubation, the culture supernatants were collected for IL-8 and PGE2 quantifications.
IL-8 and PGE2 released in the culture supernatants were measured using specific ELISA kits according to the supplier's instructions.

SMILES: CN[C@@H]1C[C@H]2O[C@@](C)([C@@H]1OC)n1c3ccccc3c3c4c(c5c6ccccc6n2c5c31)C(=O)NC4 [Staurosporine, staurosporine, reference compound]
- inhibition at 1 µM (read-out: % Relative inhibition of IL-8 release): 68%
- inhibition at 0.001 µM (read-out: % of relative inhibition of IL-8 release): 68%
